Values quoted from earlier work, collected in patent US10154813B1, “Method and apparatus for patient skin color monitoring and drug efficacy measurement” (priority 2017, dated 2018).
Like-named read-outs stand apart in the source and are kept apart here. At least one compound was matched to its structure with a doubt left.

Test system: coronary arteries
Settings: cited from earlier work

## CC(=O)OCC[N+](C)(C)C [acetylcholine]
Eight arteries with advanced stenosis, highest concentration of acetylcholine (from 1.05+/−0.05 mm)
  coronary artery diameter: 0.32+/−0.16 mm
Four normal coronary arteries, maximal acetylcholine dose (control 1.94+/−0.16 mm)
  coronary artery diameter: 2.16+/−0.15 mm
Vessels with minimal disease
  vessel response: Five of six vessels with minimal disease also constricted
